The record followed here is patent publication US20180209966A1, “FLUORESCENCE POLARIZATION IMMUNOASSAY METHOD FOR DETECTING CARBARYL” (priority 2017, published 2018).

Structures are written as SMILES.

This data set in a line: recovery rate after adding carbaryl to the strawberry matrix (FPIA). The note with it: n = 3.

Consider `CNC(=O)Oc1cccc2ccccc12` [carbaryl], for which the Recovered (added 50 μg/kg) came to 49.2 µg/kg, the Recovered (added 100 μg/kg) worked out at 105.6 µg/kg and the Recovered (added 200 μg/kg) amounted to 180.5 µg/kg.
